# Some of the results follow. Many values rest on one well or one pass, so single values are uncertain.
# System: Trypanosoma brucei brucei bloodstream form L262P (kDNA-independent)
# Test: viability Z-score (nuclei count per well, median-polish normalised, relative to plate distribution); higher = more viable parasites (negative = growth inhibition)
# Conditions: 4 days; compound concentration: 10 µM (some Prestwick/PKE rows may be 1 µM / not distinguished)
row,SMILES,viability Z-score
1,O=C(N[C@@]1([H])C[C@@]2([H])CCC[C@]([H])(C1)N2CCCC)N3CCCC3 (stereo partly specified),-5.32
2,O=C([C@@H]1CCCCN1S(=O)(=O)c1ccc(Cl)cc1)N1CCCCCC1,-1.47
3,Cc1c(C(=O)N2CCOCC2)oc2c1C(=O)CC(C)(C)C2,-3.92
4,COc1cc2nc(N3CCCN(C)CC3)nc(NC3CCN(Cc4ccccc4)CC3)c2cc1OC,-4.3
5,C/C=C/C1=C(C(=O)O)N2C(=O)[C@@H](NC(=O)[C@H](N)c3ccc(O)cc3)[C@H]2SC1 [Cefprozil],-1.53
6,Cc1ccc2c(c1)/C(=C/C(=O)c1ccc(Br)s1)C(=O)N2,-6.94
7,N/C(=N\OC(=O)c1ccc([N+](=O)[O-])cc1)c1c(Cl)cccc1Cl,-3.1
8,O=C(C[S]/C1=N/N=C2C=CC=CN12)C3=CC=CC=C3,-3.96
9,O=C(O)c1cc(-c2ccco2)nc2ccccc12,-4.33
10,O=C(N[C@]([H])(C=2C=CC1=CC=CN=C1C=2O)C=3OC=CC=3)C/C4=C/C=CC=C4,-2.92
11,C#CCSc1nc(C)cc(=O)[nH]1,-2.74
12,CC(=O)Nc1ccccc1OCCN(Cc1ccccc1)C(=O)c1ccc(Cl)cc1,-6.73
13,CCOC(=O)NC12C[C@@H]3C[C@@H](CC(CC)(C3)C1)C2,-2.31
14,[O-][N+](=O)C1=CC=C(/C=C1/C)C(=O)NC=2[S]C=C(C=2C(=O)OCCC)C=3C=CC=CC=3[Cl],-4.07
15,CN(C)S(=O)(=O)c1ccc(-c2cc(C(F)(F)F)on2)s1,-3.09
16,Cc1onc(-c2c(F)cccc2Cl)c1C(=O)Nc1sc2c(c1C(N)=O)CCC2,-3.25
17,O=C(NCC=1[S]C=CC=1)C[S]/C4=N/N=C(/CN2N=NC=3C=CC=CC2=3)N4C,-3.37
18,CC=2C=1NC(=NC=1C(C)=C(C)C=2C)[S]C/C3=N/C(=NO3)C4=CC(=CC(=C4)C([F])([F])[F])C([F])([F])[F],-2.8

# Part of the list above, as tab-separated lines.
row	SMILES	viability Z-score
11	C#CCSc1nc(C)cc(=O)[nH]1	-2.74
12	CC(=O)Nc1ccccc1OCCN(Cc1ccccc1)C(=O)c1ccc(Cl)cc1	-6.73
13	CCOC(=O)NC12C[C@@H]3C[C@@H](CC(CC)(C3)C1)C2	-2.31
14	[O-][N+](=O)C1=CC=C(/C=C1/C)C(=O)NC=2[S]C=C(C=2C(=O)OCCC)C=3C=CC=CC=3[Cl]	-4.07
15	CN(C)S(=O)(=O)c1ccc(-c2cc(C(F)(F)F)on2)s1	-3.09
16	Cc1onc(-c2c(F)cccc2Cl)c1C(=O)Nc1sc2c(c1C(N)=O)CCC2	-3.25
17	O=C(NCC=1[S]C=CC=1)C[S]/C4=N/N=C(/CN2N=NC=3C=CC=CC2=3)N4C	-3.37
18	CC=2C=1NC(=NC=1C(C)=C(C)C=2C)[S]C/C3=N/C(=NO3)C4=CC(=CC(=C4)C([F])([F])[F])C([F])([F])[F]	-2.8

# (more compounds)

row,SMILES,viability Z-score
1,O=[S](=O)(CC[S]CCOC(=O)N/C1=C/C=CC=C1)C2=C/C=C(/[Cl])C=C2,-5.75
2,CC(C)c1cccc2c1O[C@H](C(C)C)C(=S)N2CC(=O)O,-2.1
3,CCOC(=O)[C@@]1(C#N)[C@H](c2ccccc2)C[C@@](O)(c2ccccc2)[C@@H](C(=O)c2ccccc2)[C@@H]1c1ccccc1,-8.34
4,CCOC(=O)NN[C@@]1(C#N)CCSC1,-1.45
5,[C@@]/12(c3nc(\C1=C\C=C(/C2C(=O)OC)\C(=O)OC)cc1[nH]c(c(c1C)C=C)cc\1nc(\C(=C1\C)\CCC(=O)O)cc1[nH]c(c3)c(c1CCC(=O)OC)C)C (stereo partly specified) [Verteporfin],-2.32
6,O=C(NCCC[S]CCCC)C3([H])CCN(CC=1N=C(OC=1C)C=2/C=C(/OC)C(=CC=2)OC)CC3,-3.08
7,Cc1ccccc1C(=O)N1CC(=O)Nc2ccc(F)cc2[C@H]1c1ccccc1,-3.76
8,O=C(N/C1=C(/OC2=CC=CC=C12)C(=O)NC(C)(C)C)CC(C)(C)[H],-4.36
9,[C@]12([C@@](C(C[C@]1([C@@]1(/C=C(\C=3\[C@@]([C@]1(CC2)[H])(CCC(/C3)=O)C)/C)[H])[H])=C)(OC(=O)C)C(=O)C)C [Melengestrol acetate],-4.74
10,O=[S](=O)(NC=1C=CC=C2C=NNC=12)C=3/C=C(/OC)C([F])=CC=3,-1.22
11,CCCN(CCC)S(=O)(=O)c1ccc(C(=O)O/N=C(\C)c2ccc(OC)c(CSc3ccccn3)c2)cc1,-1.35
12,O=C(C=3[S]C=2/N=C(/C)C(CC(=O)C=1C=CC([Br])=CC=1)=C(C)C=2C=3N)N5C=4C=CC=CC=4[S]C=6C=CC=CC5=6,-4.33
13,O=C(NN1C(C)=C/C=C1/C)C2=CC([Cl])=CC=C2,-2.74
14,O=C(C=Cc1ccc(Br)cc1)NC(=S)NNC(=O)c1ccco1,-3.87
15,O=C(OC)C=1N=NN(C=1C[S]/C3=N/C=2C=CC=CC=2N3)C4=NO/N=C4/N,-1.94
16,N#C/C(=C\N1CCc2ccccc21)S(=O)(=O)Cc1ccco1,-5
17,CN1CCc2c(nnn2-c2ccccc2)C1,-5.49
18,CN1C(=O)CC(c2ccccc2)C1=O (stereo unspecified) [Phensuximide],-1.4
